Experimental findings from publication PMC10661827 are described below.

Protein sequences, listed by entry. Tags and fused reporters are not part of them.
UniProt Q5S006: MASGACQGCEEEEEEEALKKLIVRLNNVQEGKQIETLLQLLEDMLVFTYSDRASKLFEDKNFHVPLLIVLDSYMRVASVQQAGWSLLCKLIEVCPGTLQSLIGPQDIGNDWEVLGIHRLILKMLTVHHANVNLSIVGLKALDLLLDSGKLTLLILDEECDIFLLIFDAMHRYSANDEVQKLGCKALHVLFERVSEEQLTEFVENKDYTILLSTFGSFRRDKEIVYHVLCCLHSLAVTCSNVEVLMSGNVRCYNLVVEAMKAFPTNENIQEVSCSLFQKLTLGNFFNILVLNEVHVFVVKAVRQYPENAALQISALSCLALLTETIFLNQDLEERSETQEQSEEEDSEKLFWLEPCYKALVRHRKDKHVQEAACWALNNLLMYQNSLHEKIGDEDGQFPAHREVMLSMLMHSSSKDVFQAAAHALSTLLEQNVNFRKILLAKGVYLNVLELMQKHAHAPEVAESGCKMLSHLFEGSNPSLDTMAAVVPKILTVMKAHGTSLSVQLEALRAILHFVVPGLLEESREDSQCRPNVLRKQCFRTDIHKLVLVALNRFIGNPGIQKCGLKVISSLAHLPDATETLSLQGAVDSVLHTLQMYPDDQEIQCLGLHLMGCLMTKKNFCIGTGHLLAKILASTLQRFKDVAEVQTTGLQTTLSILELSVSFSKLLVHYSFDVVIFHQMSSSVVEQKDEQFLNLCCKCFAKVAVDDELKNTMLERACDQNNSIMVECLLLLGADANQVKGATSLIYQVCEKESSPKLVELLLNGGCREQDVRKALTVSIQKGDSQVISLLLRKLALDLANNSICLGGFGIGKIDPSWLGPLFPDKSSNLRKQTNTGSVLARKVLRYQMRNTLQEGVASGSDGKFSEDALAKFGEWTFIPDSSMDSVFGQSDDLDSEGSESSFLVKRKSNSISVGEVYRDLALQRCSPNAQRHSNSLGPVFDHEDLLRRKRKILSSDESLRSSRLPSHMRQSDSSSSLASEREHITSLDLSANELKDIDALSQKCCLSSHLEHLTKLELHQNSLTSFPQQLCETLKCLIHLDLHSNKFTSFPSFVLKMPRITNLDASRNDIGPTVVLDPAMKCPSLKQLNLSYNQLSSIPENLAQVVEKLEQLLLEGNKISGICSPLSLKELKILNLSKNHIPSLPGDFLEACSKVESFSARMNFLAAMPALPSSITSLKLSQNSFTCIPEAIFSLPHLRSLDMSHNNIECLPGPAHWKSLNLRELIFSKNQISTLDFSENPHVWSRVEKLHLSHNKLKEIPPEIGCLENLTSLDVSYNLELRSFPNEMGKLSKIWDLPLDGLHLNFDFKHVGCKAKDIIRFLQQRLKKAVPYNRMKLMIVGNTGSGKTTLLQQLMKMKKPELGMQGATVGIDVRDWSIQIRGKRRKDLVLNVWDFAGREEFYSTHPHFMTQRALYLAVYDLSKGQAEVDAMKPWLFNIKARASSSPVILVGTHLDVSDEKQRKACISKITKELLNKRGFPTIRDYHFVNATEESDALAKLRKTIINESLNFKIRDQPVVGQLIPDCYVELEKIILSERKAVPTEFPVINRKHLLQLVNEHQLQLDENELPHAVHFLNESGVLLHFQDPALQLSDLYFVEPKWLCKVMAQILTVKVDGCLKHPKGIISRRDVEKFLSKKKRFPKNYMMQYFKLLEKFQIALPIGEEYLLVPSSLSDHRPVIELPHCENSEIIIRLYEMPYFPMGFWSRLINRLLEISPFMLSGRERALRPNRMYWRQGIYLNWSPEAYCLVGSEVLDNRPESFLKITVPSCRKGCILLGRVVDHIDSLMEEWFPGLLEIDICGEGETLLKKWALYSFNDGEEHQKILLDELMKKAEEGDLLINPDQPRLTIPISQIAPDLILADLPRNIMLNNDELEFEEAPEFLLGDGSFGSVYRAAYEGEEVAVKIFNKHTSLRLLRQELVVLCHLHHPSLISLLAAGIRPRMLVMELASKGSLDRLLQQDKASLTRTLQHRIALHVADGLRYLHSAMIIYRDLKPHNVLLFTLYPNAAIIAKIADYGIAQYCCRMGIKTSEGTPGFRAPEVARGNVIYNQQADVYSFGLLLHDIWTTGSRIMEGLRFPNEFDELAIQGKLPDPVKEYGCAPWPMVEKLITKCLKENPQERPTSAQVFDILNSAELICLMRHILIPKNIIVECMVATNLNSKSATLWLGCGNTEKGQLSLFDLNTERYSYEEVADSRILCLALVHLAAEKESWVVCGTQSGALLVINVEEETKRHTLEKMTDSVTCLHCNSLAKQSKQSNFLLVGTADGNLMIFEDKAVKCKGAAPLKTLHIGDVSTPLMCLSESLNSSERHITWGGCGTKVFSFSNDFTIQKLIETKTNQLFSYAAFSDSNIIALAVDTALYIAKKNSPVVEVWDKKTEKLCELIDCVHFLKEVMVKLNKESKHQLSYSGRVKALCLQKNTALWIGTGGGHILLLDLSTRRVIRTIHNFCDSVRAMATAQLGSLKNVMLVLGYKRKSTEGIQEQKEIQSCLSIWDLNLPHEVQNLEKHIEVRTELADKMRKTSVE
UniProt P14873: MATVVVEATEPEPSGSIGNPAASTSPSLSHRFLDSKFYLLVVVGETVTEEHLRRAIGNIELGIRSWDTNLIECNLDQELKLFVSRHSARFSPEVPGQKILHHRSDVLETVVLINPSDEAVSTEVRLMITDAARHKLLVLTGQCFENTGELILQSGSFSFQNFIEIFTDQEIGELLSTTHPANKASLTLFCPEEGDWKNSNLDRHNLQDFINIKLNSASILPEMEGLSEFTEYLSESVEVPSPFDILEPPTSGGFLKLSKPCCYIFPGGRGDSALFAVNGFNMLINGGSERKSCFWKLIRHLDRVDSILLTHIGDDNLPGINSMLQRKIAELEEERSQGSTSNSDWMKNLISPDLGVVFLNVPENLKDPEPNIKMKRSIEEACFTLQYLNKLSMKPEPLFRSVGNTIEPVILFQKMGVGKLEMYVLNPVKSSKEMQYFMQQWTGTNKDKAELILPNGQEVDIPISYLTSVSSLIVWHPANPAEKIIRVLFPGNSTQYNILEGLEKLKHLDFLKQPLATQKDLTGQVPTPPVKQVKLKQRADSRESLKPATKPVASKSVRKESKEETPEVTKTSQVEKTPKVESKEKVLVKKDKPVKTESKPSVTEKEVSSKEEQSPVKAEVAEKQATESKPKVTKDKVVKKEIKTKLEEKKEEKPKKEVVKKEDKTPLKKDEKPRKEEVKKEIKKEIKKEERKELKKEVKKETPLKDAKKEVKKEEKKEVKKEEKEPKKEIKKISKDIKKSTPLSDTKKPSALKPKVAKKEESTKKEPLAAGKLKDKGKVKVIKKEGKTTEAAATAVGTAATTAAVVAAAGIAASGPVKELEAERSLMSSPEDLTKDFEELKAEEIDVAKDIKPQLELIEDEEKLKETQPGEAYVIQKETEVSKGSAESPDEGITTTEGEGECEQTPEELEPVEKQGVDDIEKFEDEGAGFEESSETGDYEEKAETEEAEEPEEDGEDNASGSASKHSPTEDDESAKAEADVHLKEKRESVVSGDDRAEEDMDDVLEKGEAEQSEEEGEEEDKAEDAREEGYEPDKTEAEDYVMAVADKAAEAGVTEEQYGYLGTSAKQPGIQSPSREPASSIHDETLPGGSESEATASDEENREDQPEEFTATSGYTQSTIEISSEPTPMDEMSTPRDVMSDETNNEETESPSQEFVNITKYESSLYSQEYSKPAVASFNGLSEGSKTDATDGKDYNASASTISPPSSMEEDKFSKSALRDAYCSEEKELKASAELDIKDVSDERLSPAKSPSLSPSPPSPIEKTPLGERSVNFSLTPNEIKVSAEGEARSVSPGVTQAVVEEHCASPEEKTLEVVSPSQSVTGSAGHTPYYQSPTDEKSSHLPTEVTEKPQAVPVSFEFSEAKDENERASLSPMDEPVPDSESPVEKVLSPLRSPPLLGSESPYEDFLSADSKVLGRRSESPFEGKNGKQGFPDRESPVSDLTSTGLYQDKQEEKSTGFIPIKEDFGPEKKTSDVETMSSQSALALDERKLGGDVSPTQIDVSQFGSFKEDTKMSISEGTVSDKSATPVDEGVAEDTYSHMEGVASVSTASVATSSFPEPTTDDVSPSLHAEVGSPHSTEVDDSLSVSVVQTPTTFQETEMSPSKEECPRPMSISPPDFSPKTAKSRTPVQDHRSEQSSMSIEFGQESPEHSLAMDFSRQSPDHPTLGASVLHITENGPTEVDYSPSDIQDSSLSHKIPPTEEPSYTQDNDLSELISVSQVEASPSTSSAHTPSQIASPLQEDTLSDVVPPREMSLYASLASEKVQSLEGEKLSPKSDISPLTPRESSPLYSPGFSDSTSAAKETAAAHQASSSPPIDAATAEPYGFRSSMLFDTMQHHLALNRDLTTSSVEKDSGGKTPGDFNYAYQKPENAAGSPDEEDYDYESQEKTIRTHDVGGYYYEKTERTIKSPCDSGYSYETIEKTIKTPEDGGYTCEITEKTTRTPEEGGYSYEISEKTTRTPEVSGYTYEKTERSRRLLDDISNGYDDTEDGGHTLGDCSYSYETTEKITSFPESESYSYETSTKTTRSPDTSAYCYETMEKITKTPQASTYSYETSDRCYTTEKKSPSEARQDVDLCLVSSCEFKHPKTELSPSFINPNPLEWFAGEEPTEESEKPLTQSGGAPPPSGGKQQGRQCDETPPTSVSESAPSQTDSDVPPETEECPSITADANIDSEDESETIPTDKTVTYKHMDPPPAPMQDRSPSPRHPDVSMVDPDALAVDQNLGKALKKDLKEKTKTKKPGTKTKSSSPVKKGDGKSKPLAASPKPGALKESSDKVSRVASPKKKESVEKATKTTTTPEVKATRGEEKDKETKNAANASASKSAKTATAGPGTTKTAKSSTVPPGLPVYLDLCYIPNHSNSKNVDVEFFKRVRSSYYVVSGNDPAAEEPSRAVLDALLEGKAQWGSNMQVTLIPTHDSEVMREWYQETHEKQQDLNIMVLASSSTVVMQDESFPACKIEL

These are yes or no findings as the source states them, for the method shown. In cells and extracts the contact can be indirect. Some results given as binding are weak or reduced against the parent protein; the word gives no strength.

Assay [1] addresses leucine-rich repeat kinase 2 (LRRK2) (mouse (endogenous in N2a cells and C57BL/6 mouse cortex)) (UniProt Q5S006). Put plainly: co-IP; endogenous proteins in N2a cells; LRRK2 as bait, MAP1B detected; rabbit IgG as negative control.
Assay [2] has the same target. Kind of assay: co-IP; anti-LRRK2 (1:50) on magnetic beads incubated with C57BL/6 mouse cortical lysates; washes, SDS-PAGE and immunoblotting; isotype rabbit IgG as negative control.

On to “microtubule-associated protein 1B (MAP1B) (from UniProt P14873 1-2464)”, for which the binding entry in assay [1] and in assay [2] was “binds” each time.
